# Measured values taken from PubChem BioAssay AID445 (National Center for Advancing Translational Sciences (NCATS), 2006).
# Where “and” joins values, the source holds several entries; their conditions need not be identical. Identical values can stand only once. This is one part of the list. Shown are side measurements of this screen, not its main read-out; they come without a call. The list favours compounds with an active or inconclusive main result. The note in brackets gives the kind of curve behind each potency; many fits are weak.
# Assay: IkB Signaling
# Conditions: ABC-DLBCL IkBa-CBG/CBR dual luciferase ratio (green luciferase fused to IkBa over red control in OCI-Ly3 lymphoma cells), 4 h
# How it was run: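 In this assay, an IκBα–CBG68 fusion accumulates when IKK-driven degradation is blocked; native CBR normalizes for cell number. OCI-Ly3 cells were treated 4 h with compound and doxycycline, then green and red light read after Chroma-Glo addition.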
# [1] = measured here: control luc red channel unless noted
# [2] = measured here: IkB-luc green channel
# [3] = measured here: control luc red channel
smiles,measurement,setting,value
CCOc1ccc2oc(=O)cc(CN3CCN(C(=O)c4ccc(F)cc4)CC3)c2c1,AC50,[1],"39.8 µM [falling, single point]"
Cc1c(C(=O)Nc2cccc(Cl)c2)oc2ccc(S(=O)(=O)N(C)C3CCCCC3)cc12,AC50,[1],"10 µM [falling, partial curve]"
O=C1c2ccccc2C(Nc2cccc(C(F)(F)F)c2)N1Cc1ccco1 (stereo unspecified),AC50,[1],"20 µM [falling, partial curve]"
COC(=O)CCCCCNc1ccc(C(=O)OC)cc1N,AC50,[1],"7.94 µM [falling, partial curve]"
CCC(Sc1nncn2c1cc1oc(C)cc12)C(=O)Nc1ccc(F)cc1 (stereo unspecified),AC50,[1],"7.94 µM [falling, partial curve]"
COc1ccc(CCNC(=O)C(=O)NCC(c2ccco2)S(=O)(=O)c2ccc(F)cc2)cc1 (stereo unspecified),AC50,[1],"31.6 µM [falling, single point]"
O=C(Cn1[nH]c(=O)c2ccccc2c1=O)Nc1ccc2c(c1)CCC2,AC50,[1],"3.16 µM [falling, single point]"
CCOc1ccccc1NC(=O)CCn1nc(C)c(S(=O)(=O)N2CCCCC2)c1C,AC50,[1],"25.1 µM [falling, single point]"
O=C(Cn1ncc2c3ccccc3n(Cc3cccc(Cl)c3)c2c1=O)NC1CCCCCC1,AC50,[1],"25.1 µM [falling, single point]"
CCCc1cc(C(=O)Nc2nccs2)cs1,AC50,[1],"15.8 µM [falling, single point]"
COc1ccccc1Nc1nn2c(=O)c3ccc(C(=O)Nc4ccc(F)cc4)cc3nc2s1,AC50,[1],"39.8 µM [falling, single point]"
CCOc1ccc2oc(=O)cc(CN3CCN(C(=O)c4cccc(F)c4)CC3)c2c1,AC50,[1],"39.8 µM [falling, single point]"
CCOC(=O)c1ccc(NC(=O)CCc2c(C)n(CC)c3cc(-c4ccccc4OC)nn3c2=O)cc1,AC50,[1],"25.1 µM [falling, single point]"
CCNC(=O)c1ccccc1NC(=O)c1cccc(S(=O)(=O)N2CCC(C)CC2)c1,AC50,[1],"15.8 µM [falling, partial curve]"
CC(NC(=O)C1CCN(C(=O)N2CCOc3ccc(Cl)cc32)CC1)c1ccccc1 (stereo unspecified),AC50,[1],"25.1 µM [falling, single point]"
COc1ccc(N2CCN(C(=O)c3nn(C)c4c3CS(=O)(=O)c3ccccc3-4)CC2)cc1,AC50,[1],"12.6 µM [falling, partial curve]"
O=C(CCSCc1ccc(Cl)cc1)N1CCN(c2ccccc2F)CC1,AC50,[1],"31.6 µM [falling, single point]"
Cc1ccc(CNC(=O)CCn2ccc3cc(S(=O)(=O)N4CCCC4)ccc32)cc1,AC50,[1],"31.6 µM [falling, partial curve]"
COc1ccccc1NC(=O)CSc1nnc(-c2nonc2NC(C)=O)n1-c1ccccc1,AC50,[1],"25.1 µM [falling, partial curve]"
Cc1nn(-c2ccc(C(=O)O)cc2)c(N)c1-c1ccccc1,AC50,[2],"1 µM [rising, partial curve]"
same,AC50,[3],"0.2 µM [falling, full curve]"
CCCc1cc(=O)n2[nH]c(-c3ccccc3)cc2n1,AC50,[1],"10 µM [falling, partial curve]"
C=C1C(=O)O[C@@H]2[C@@H]1CC/C(C)=C\CC[C@@]1(C)O[C@H]21,AC50,[2],"15.8 µM [rising, partial curve]"
same,AC50,[3],"15.8 µM [falling, partial curve] and 10 µM [falling, partial curve]"
O=C1CC(c2ccco2)CC2=C1C(c1ccccc1)n1nc(C(F)(F)F)nc1N2 (stereo unspecified),AC50,[1],"31.6 µM [falling, single point]"
CCOCCCNC(=O)c1cc2c(=O)n3ccccc3nc2s1,AC50,[1],"1.26 µM [rising, partial curve]"
COc1ccc(N2CCN(C(=O)c3ccc(NC(=O)c4nsc5ccccc45)cc3)CC2)cc1,AC50,[1],"0.251 µM [falling, full curve]"
CCn1c(SCC(=O)N2CCCc3ccccc32)nc2ccccc2c1=O,AC50,[1],"20 µM [falling, partial curve]"
CN1C(=O)C2(Nc3ccccc3-c3nc4ccccc4n32)c2ccccc21 (stereo unspecified),AC50,[1],"15.8 µM [falling, partial curve]"
Cc1ccc(C)c(N2CCN(C(=O)c3cc4cc5ccc(C)cc5nc4s3)CC2)c1,AC50,[1],"39.8 µM [falling, single point]"
Nc1ccc(CCNc2ncnc3c2ncn3[C@@H]2O[C@@H](CO)[C@H](O)[C@@H]2O)cc1,AC50,[2],"3.16 µM [rising, full curve, poor fit]"
same,AC50,[3],"2.51 µM [rising, full curve]"
COc1ccc(-c2cc(OC(=O)c3ccc(F)cc3)c3c(C)oc(C)c3c(=O)c2)cc1OC,AC50,[1],"6.31 µM [falling, single point]"
Cc1ccc(Cc2c(C)nn(-c3nc(C)c(C(=O)N4CCCCC4C)s3)c2C)cc1 (stereo unspecified),AC50,[1],"25.1 µM [falling, single point]"
COc1ccc(-c2noc(CSc3nnc(-c4ccccc4)n3-c3ccc(F)cc3)n2)c(OC)c1,AC50,[1],"39.8 µM [falling, single point]"
O=C(Nc1ccc(-c2nc3ccccc3[nH]2)cc1)C1CCCO1 (stereo unspecified),AC50,[1],"15.8 µM [falling, partial curve]"
O=C(CCCc1ccccc1)N1CCc2ccccc21,AC50,[1],"7.94 µM [falling, partial curve]"
c1ccc(-c2oc3ncnc(NCCN4CCOCC4)c3c2-c2ccccc2)cc1,AC50,[2],"31.6 µM [falling, partial curve]"
same,AC50,[3],"25.1 µM [falling, single point]"
COC(=O)c1sccc1S(=O)(=O)N(CC(=O)NCc1ccccc1)c1ccc(C)c(C)c1,AC50,[1],"31.6 µM [falling, single point]"
CCOC(=O)c1c(C)c(-c2ccccc2)n(CC(=O)Nc2cccc(F)c2)c1C,AC50,[1],"20 µM [falling, single point]"
COc1ccc(NC(=O)CSc2nnc3scc(-c4ccc(Cl)cc4)n23)cc1,AC50,[1],"39.8 µM [falling, single point]"
COCCOc1ccc(C(F)(F)F)cc1Nc1nc2ccccc2o1,AC50,[1],"3.16 µM [falling, partial curve]"
Cc1ccc(S(=O)(=O)N(CC(=O)N2CCc3ccccc3C2)c2ccc(C)c(C)c2)cc1,AC50,[1],"5.01 µM [falling, partial curve]"
O=C(Nc1noc2ccccc12)c1c(F)cccc1F,AC50,[1],"2 µM [rising, partial curve, poor fit]"
CCOC(=O)c1ccccc1NC(=O)N1CCCN(S(=O)(=O)c2ccc3c(ccn3CC)c2)CC1,AC50,[1],"10 µM [falling, partial curve, poor fit]"
CCOc1ccc(-c2nc3c(C#N)c[nH]n3c2NC2CCCCC2)cc1,AC50,[1],"25.1 µM [falling, single point]"
O=C(Nc1cc(F)ccc1F)c1ccc2c(c1)nnn2C1CCCC1,AC50,[1],"1.26 µM [rising, partial curve]"
CCCC(=O)Nc1cc(C(=O)NCc2ccc(OC)cc2)ccc1S(=O)(=O)c1ccc(Cl)cc1,AC50,[1],"39.8 µM [falling, single point]"
Cc1cc(C)n(-c2nnc(Nc3ccc(C(C)C)cc3)c3ccccc23)n1,AC50,[1],"39.8 µM [falling, single point]"
CC(=O)c1ccc(NC(=O)C2=CC(c3cccs3)=NS(=O)(=O)N2C)cc1,AC50,[1],"25.1 µM [falling, single point]"
COc1cc(Nc2nc(SCc3cccc(Cl)c3)nc3ccccc23)cc(OC)c1,AC50,[1],"10 µM [falling, single point]"
Cc1nc2c(c(C)nn2-c2ccccc2)c(C)c1CCC(=O)Nc1ccc(F)cc1,AC50,[1],"12.6 µM [falling, partial curve]"
Cc1ccc2nc(-c3ccc(NC(=O)C(F)(F)F)cc3)sc2c1,AC50,[1],"0.2 µM [rising, full curve]"
Fc1ccc(Nc2c3c(nc4nncn24)CCC3)cc1,AC50,[1],"6.31 µM [rising, single point]"
Cc1[nH]c2ccccc2c1C(O)CN1CCN(c2cccc(C(F)(F)F)c2)CC1 (stereo unspecified),AC50,[1],"12.6 µM [falling, partial curve]"
Cc1cc(C(=O)CN2C(=O)NC3(CCCCC3)C2=O)c(C)n1Cc1ccc2c(c1)OCO2,AC50,[1],"31.6 µM [falling, single point]"
Cc1nc2nc(NC(=O)c3ccc(F)cc3)[nH]n2c(=O)c1Cc1ccccc1,AC50,[1],"12.6 µM [falling, single point]"
O=C(NCc1ccccc1F)C1CCN(Cc2cc3ccccc3n2Cc2cccc(Cl)c2)CC1,AC50,[1],"3.98 µM [falling, full curve, poor fit]"
Cc1c(C(=O)OC2CCCCC2)[nH]c2c1C(=O)CC(c1ccccc1Cl)C2 (stereo unspecified),AC50,[1],"5.01 µM [falling, partial curve]"
Cc1ccccc1NC(=O)Nc1ccc2nc(N3CCN(C)CC3)cc(C)c2c1,AC50,[1],"10 µM [falling, partial curve, poor fit]"
Cn1c(=O)oc2cc(S(=O)(=O)CCC(=O)NCCc3ccccc3)ccc21,AC50,[1],"39.8 µM [falling, single point]"
Cc1cccn2c(=O)c(/C=C(\C#N)c3nc4ccccc4s3)c(Oc3ccc(Br)cc3)nc12,AC50,[2],"39.8 µM [rising, single point]"
same,AC50,[3],"1.58 µM [falling, full curve]"
CCOCCc1nnc(NC(=O)C(=O)c2cc(C)n(-c3cccc(C)c3)c2C)s1,AC50,[1],"31.6 µM [falling, single point]"
Cc1ccc(-c2noc(CNC(=O)COc3cc(C)c(Br)c(C)c3)n2)cc1,AC50,[1],"15.8 µM [falling, partial curve, poor fit]"
